# Reference: PMC10746275
# Results are given in words; binding and its absence hold for the method and conditions named. In cells and extracts the contact can be indirect. Binding can be weak; no strength is given.
# Molecular target: T1, tetraspanin CD82 (human (endogenous in C91-PL)) (UniProt P27701)
# T1 sequence (chain, N-glycosylated in its large extracellular loop (sites not printed)): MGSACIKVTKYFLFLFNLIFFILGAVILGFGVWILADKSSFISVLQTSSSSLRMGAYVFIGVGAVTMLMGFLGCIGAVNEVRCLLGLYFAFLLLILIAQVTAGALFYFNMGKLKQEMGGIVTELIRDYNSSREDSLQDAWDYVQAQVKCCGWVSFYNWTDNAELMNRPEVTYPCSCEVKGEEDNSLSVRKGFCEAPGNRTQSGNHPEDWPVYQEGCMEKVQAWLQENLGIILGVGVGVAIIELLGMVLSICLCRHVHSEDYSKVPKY
# Test: co-IP; lysate of chronically infected T-cells (C91-PL; C8166 also harvested) in 50 mM Tris-HCl pH 7.4, 150 mM NaCl, 1 mM EDTA, 1 mM CaCl2, 1 mM MgCl2, 1% CHAPSO; 500 ug total protein incubated overnight at 4°C with or without 1 ug anti-CD9, anti-CD81 or anti-CD82 antibody; protein A magnetic beads 4 h at 4°C; five washes; western blot
substance,measurement,value
HTLV-1 Gag,binding,binds
